Counter-ions that a name gives are not always drawn. Like-named read-outs stand apart in the source and are kept apart here.
Tested on: SARS-CoV-2
Assay: microbe, parasite or virus in culture
Format: cell-based
Conditions: for Selectivity Index (SI): CC50/IC50; for IC50: Severe acute respiratory syndrome coronavirus 2, Vero, 24 h, read-out: IC50 antiviral activity

Row | SMILES | Selectivity Index (SI) (compounds from secondary screening) | IC50 [µM] | Selectivity Index (SI) (compounds from primary screening) | IC50 (Vero cells, MOI 2, 24 h post-infection, compounds from primary screening, 100 μM to 0.16 μM) [µM]
1 | CN(C)C(=O)C(CCN1CCC(O)(c2ccc(Cl)cc2)CC1)(c1ccccc1)c1ccccc1 [Loperamide hydrochloride] | >3.4 | 14.8 | – | –
2 | Fc1ccc(C(c2ccc(F)cc2)N2CCN(C/C=C/c3ccccc3)CC2)cc1 [Flunarizine] | – | – | >18.9 | 5.3

Reference: paper PMC9728307 (Journal of Microbiology and Biotechnology, 2020)
